# Measured values taken from PubChem BioAssay AID504467 (National Center for Advancing Translational Sciences (NCATS), 2011).
# The campaign covered roughly 330,000 compounds. About 7,700 (2.3%) were called active. The shares of active, inactive and inconclusive entries below differ from those in the screen. The call rests on the fitted dose curve; in most records, active means well fitted inhibition curve with a large enough effect; inconclusive means small, poorly fitted or top-dose-only effect, or effect the other way; inactive means flat fitted curve, though single readings scatter. Potencies beside an inconclusive call are fits to weak or partial responses and may not hold up.
# Assay: qHTS screen for small molecules that inhibit ELG1-dependent DNA repair in human embryonic kidney (HEK293T) cells expressing luciferase-tagged ELG1; further: nearly all actives have a fitted effect of over 55% in size
# Conditions: HEK293T ELG1-luciferase reporter, luminescence, 16 h, DNA damage induced by 5-fluorouridine; activity change, negative = inhibition: at 46.1 µM (top of the series)
# Method in brief: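 Overnight (16 hr) co-exposure of 2,000 cells/well to 5-fluorouridine and compound at 37 °C preceded detection. Luciferase was quantified via ONE-Glo luminescence; loss of signal denotes inhibition.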
# On the % scale 0 is the no-effect control and ±100 the full control effect; potency means the concentration at half of the fitted maximal effect.
Compound,Potency,"activity change, negative = inhibition"
CCOc1cc(C(=O)N2CCc3cc(OC)c(OC)cc3C2)ccc1OC(F)F,"inconclusive: 7.31 µM [inhibitor, single point]",–
Cc1ccccc1NC(=O)c1ccccc1O,–,inactive: -9.65%
CC(C)(C)NC(=O)/C(=C/c1cccnc1)NC(=O)c1ccco1,"inconclusive: 23.1 µM [activator, single point]",–
CN(C)c1ccc(N=Nc2ccccc2C(=O)OCC(=O)N(C)c2ccccc2)cc1,active: 13 µM,–
COc1ccc2[nH]c3c(c2c1)CCN1C(=O)C(CC(=O)NCC24CC5CC(CC(C5)C2)C4)C[C@H](C(=O)N2CCOCC2)[C@@]31C (stereo not given in full),"inconclusive: 13 µM [inhibitor, partial curve, poor fit]",–
Cc1cc(NC(=O)c2ccoc2C)no1,"inconclusive: 20.6 µM [activator, single point]",–
O=C(N/N=C/c1cc([N+](=O)[O-])ccc1O)C1CC1,active: 18.3 µM,–
C#CCOCCOCCOCCNc1nc(N2CCN(C(=O)CCCCCCCCCCNC(=O)Cn3cc(C[C@@H](C)O)nn3)CC2)nc(N2CCN(C(=O)CCCCCCCCCCNC(=O)[C@H](CO)n3cc(CCCSC)nn3)CC2)n1,"inconclusive: 25.1 µM [inhibitor, single point]",–
COc1ccccc1C(=O)Nc1ccc(Oc2ncnc3sc(-c4ccccc4)cc23)cc1,"inconclusive: 5.8 µM [inhibitor, partial curve]",–
CCc1ccc(NC(=O)c2cc(C)no2)cc1,"inconclusive: 23.1 µM [activator, partial curve]",–
Cc1noc(C)c1NC(=O)Nc1ccc2c(c1)C(=O)N([C@H](C)CO)C[C@H](C)[C@@H](CN(C)S(=O)(=O)c1cccs1)O2,"inconclusive: 0.326 µM [inhibitor, single point]",–
COc1ccc(-n2nc(C(=O)NCC3CCCO3)c3ccccc3c2=O)cc1 (stereo not given),–,inactive: 4.09%
COc1ccc(NC(=O)CSc2nnc(-c3cccs3)n2N)cc1S(N)(=O)=O,"inconclusive: 23.1 µM [activator, partial curve, poor fit]",–
CCN1CCN(C(=O)c2c(-c3c(F)cccc3Cl)noc2C)CC1,"inconclusive: 29.1 µM [activator, single point]",–
CCc1ccc(NC(=O)COC(=O)Cn2cnc3ccccc32)cc1,–,inactive: 6.37%
CCN(CC)c1nc(Nc2ccccc2)nc(Oc2ccc(=O)n(C)n2)n1,–,inactive: 16.5%
COc1ccc(/C=C/C(=O)OCC(=O)c2ccc3c(c2)NC(=O)CO3)cc1,"inconclusive: 1.46 µM [inhibitor, full curve, poor fit]",–
Cc1sc(NC(=O)C2CCCO2)c(C(N)=O)c1C (stereo not given),"inconclusive: 14.6 µM [activator, partial curve, poor fit]",–
COc1cccc(OC)c1-c1nn2c(-c3ccco3)nnc2s1,"inconclusive: 11.6 µM [activator, partial curve]",–
CNS(=O)(=O)c1cccc(C(=O)OCC(=O)c2cc(C)n(CC3CCCO3)c2C)c1 (stereo not given),"inconclusive: 1.16 µM [activator, full curve]",–
O=C(CCc1ccccc1)N1CCN(c2ccc([N+](=O)[O-])cc2)CC1,"inconclusive: 29.1 µM [inhibitor, single point]",–
O=C(OCCN1C(=O)c2cccc3c(N4CCOCC4)ccc(c23)C1=O)c1ccc(Cl)cc1,"inconclusive: 10.3 µM [inhibitor, partial curve]",–

Compound,Potency,"activity change, negative = inhibition"
O=C(Nc1ccc(N2CCOCC2)c(Cl)c1)c1ccco1,"inconclusive: 2.06 µM [activator, full curve]",–
O=S(=O)(Nc1ccccc1N1CCOCC1)c1c(F)cc(F)cc1Br,–,inactive: 5.94%
O=C(NCc1ccccc1)c1cc(-c2ccncc2)nc2ccccc12,–,inactive: -0.0254%
Cc1ccc(C[n+]2cc(-c3ccc(Cl)cc3)n3c2CCC3)cc1,active: 4.61 µM,–
COC(=O)CC1(C(=O)OC)Oc2ccc(Br)cc2C(=O)N1c1ccc(Br)cc1Cl (stereo not given),active: 23.1 µM,–
CCCC(=O)Nc1cc2c3c(c1)CCN3C(=O)CC2,"inconclusive: 16.4 µM [activator, single point]",–
c1ccc(-c2csc(Nc3ncccn3)n2)cc1,"inconclusive: 0.731 µM [activator, full curve]",–
N#Cc1nc(-c2ccccc2F)oc1NCCc1ccccc1,"inconclusive: 10.3 µM [activator, partial curve]",–
COc1ccc(N2CCN(S(=O)(=O)c3cc(C)ccc3OC)CC2)cc1,–,inactive: -2.71%
COc1ccc(-c2nnc3ccc(SCC(=O)NCc4ccco4)nn23)cc1OC,"inconclusive: 18.4 µM [inhibitor, partial curve]",–
COc1ccc(OCC(=O)O/N=C(\N)Cc2ccc(Cl)cc2)cc1,–,inactive: -2.32%
C#CCOCCOCCOCCNc1nc(N2CCN(C(=O)CCCCCCCCCCNC(=O)[C@H]([C@@H](C)CC)n3cc(CCCCCN)nn3)CC2)nc(N2CCN(C(=O)CCCCCCCCCCNC(=O)[C@H](CCCCN)n3cc(CCCC(=O)O)nn3)CC2)n1,–,inactive: 11%
CC(=O)c1cc(C)ccc1OC(=O)c1cccc2nc(C)oc12,"inconclusive: 7.31 µM [activator, partial curve, poor fit]",–
Cc1ccc(-c2nc(-c3nccc4ccccc34)oc2-c2ccccc2)cc1,"inconclusive: 13 µM [activator, partial curve]",–
c1ccc(C[C@H]2CN=C(Nc3ccccc3)N2CCCC2CCCC2)cc1,"inconclusive: 7.3 µM [inhibitor, partial curve, poor fit]",–
COc1ccc(CCC(=O)NCc2cn3ccc(C)cc3n2)cc1,–,inactive: 7.11%
CSc1oc(-c2ccc(F)cc2)nc1S(=O)(=O)c1ccccc1,"inconclusive: 20.6 µM [activator, single point]",–
CCOCCCNC(=O)c1c[nH]c2ccc(C)cc2c1=O,"inconclusive: 23.1 µM [inhibitor, partial curve]",–
COC(=O)CSc1nnc(CNC(=O)c2ccccc2F)n1-c1ccccc1,–,inactive: -6.68%
CC/C(=C\C1CCCCC1)C(NP(=O)(c1ccccc1)c1ccccc1)c1ccccc1 (stereo not given),"inconclusive: 23.1 µM [inhibitor, partial curve, poor fit]",–
COc1cc(CN2CC(=O)N(c3ccc(C)c(Cl)c3)C2=S)cc(OC)c1OC,"inconclusive: 20.6 µM [inhibitor, single point]",–
Cc1cnc(C(=O)Nc2nnc(SCc3c(Cl)cccc3Cl)s2)cn1,–,inactive: -0.487%

# An excerpt of these results, with tabs.
Compound	Potency	activity change, negative = inhibition
CC(C)(C)NC(=O)/C(=C/c1cccnc1)NC(=O)c1ccco1	inconclusive: 23.1 µM [activator, single point]	–
CN(C)c1ccc(N=Nc2ccccc2C(=O)OCC(=O)N(C)c2ccccc2)cc1	active: 13 µM	–
COc1ccc2[nH]c3c(c2c1)CCN1C(=O)C(CC(=O)NCC24CC5CC(CC(C5)C2)C4)C[C@H](C(=O)N2CCOCC2)[C@@]31C (stereo not given in full)	inconclusive: 13 µM [inhibitor, partial curve, poor fit]	–
Cc1cc(NC(=O)c2ccoc2C)no1	inconclusive: 20.6 µM [activator, single point]	–

# Later entries:

Compound,Potency,"activity change, negative = inhibition"
COc1ccccc1OCC(=O)Nc1ccc2c(c1)OCO2,"inconclusive: 16.4 µM [activator, single point]",–
CC1(C)C(c2cccs2)=[N+]([O-])C2(CCCCC/C2=N\NC(N)=O)N1O (stereo not given),"inconclusive: 25.9 µM [activator, partial curve, poor fit]",–
CN1C[C@@H]2C(c3ccc(Cl)nc3)C3(c4ccccc4)CC2(C3)[C@H]1c1ccccc1 (stereo not given in full),–,inactive: 3.09%
CCOC(=O)C1=C(c2ccccc2)N=c2s/c(=C\c3ccco3)c(=O)n2C1c1cccs1 (stereo not given),"inconclusive: 31.6 µM [inhibitor, single point]",–
COc1cccc(N(C(=O)CCl)C(C(=O)NCCc2ccccc2)c2cccs2)c1 (stereo not given),active: 16.4 µM,–
COc1ccc(CC(=O)Nc2cccc(-c3nnc(-c4ccc(C)cc4)o3)c2)cc1OC,active: 11.6 µM,–
O=C(NC1CCOC1)c1cc(COc2cccc(C(F)(F)F)c2)on1 (stereo not given),"inconclusive: 20.6 µM [activator, single point]",–
Cc1nn(C)cc1CN1CCCC(C(=O)c2ccc(-c3ccccc3)cc2)C1 (stereo not given),"inconclusive: 29.1 µM [inhibitor, single point]",–
Cc1occc1C(=O)N1CCCC(CCC(=O)NCc2ccc(F)c(F)c2)C1 (stereo not given),–,inactive: 4.87%
O=C(N/N=C/c1ccc([N+](=O)[O-])o1)c1cc(-c2cccc(Br)c2)nc2ccccc12,"inconclusive: 18.4 µM [inhibitor, single point]",–
O=C(c1cc(C2CC2)nn1-c1ccccc1)N1CCN(S(=O)(=O)c2c(F)cccc2F)CC1,"inconclusive: 18.3 µM [inhibitor, single point]",–
Cc1c(C(=O)Nc2c(F)cccc2F)sc2ncnc(N3CCN(c4ccccc4)CC3)c12,"inconclusive: 29.1 µM [inhibitor, single point]",–
CS(=O)(=O)c1ccccc1-c1csc(N2CCC(C(N)=O)CC2)n1,"inconclusive: 1.83 µM [activator, partial curve]",–
COc1ccc(NC(=O)c2cc(-c3ccccn3)nc3c(C)cc(C)cc23)c(C)c1,–,inactive: -12.7%
CCN1CC(CN(C)Cc2nc(-c3ccc(Cl)cc3)no2)CC1=O (stereo not given),"inconclusive: 13 µM [inhibitor, partial curve, poor fit]",–
O=C(Cc1ccccc1)Nc1ccc(NC(=O)c2cccc(Cl)c2)cc1,"inconclusive: 18.4 µM [activator, partial curve]",–
Cc1noc(NS(=O)(=O)c2ccc(NC(=O)NC(C)(C(F)(F)F)C(F)(F)F)cc2)c1C,–,inactive: 8.19%
COc1cccc(F)c1C(C[N+](=O)[O-])c1c(N)n(C)c(=O)n(C)c1=O (stereo not given),active: 18.3 µM,–
CNc1c(NS(=O)(=O)c2ccc(C3CCCCC3)cc2)c(=O)oc2ccccc12,"inconclusive: 0.651 µM [inhibitor, partial curve]",–
Cc1ccc(Oc2cc(C)nc(-c3ccccc3O)n2)cc1,"inconclusive: 35.5 µM [activator, single point]",–
CCN1CCCc2cc(CN(CCN3CCOCC3)C(=S)Nc3cccc(OC)c3)ccc21,"inconclusive: 6.51 µM [inhibitor, single point]",–
